{"sequences": {"note": "By UniProt entry, the sequences of proteins in these tests, tags left out. Residues count along the entry.", "UniProt P56817, 46-501": "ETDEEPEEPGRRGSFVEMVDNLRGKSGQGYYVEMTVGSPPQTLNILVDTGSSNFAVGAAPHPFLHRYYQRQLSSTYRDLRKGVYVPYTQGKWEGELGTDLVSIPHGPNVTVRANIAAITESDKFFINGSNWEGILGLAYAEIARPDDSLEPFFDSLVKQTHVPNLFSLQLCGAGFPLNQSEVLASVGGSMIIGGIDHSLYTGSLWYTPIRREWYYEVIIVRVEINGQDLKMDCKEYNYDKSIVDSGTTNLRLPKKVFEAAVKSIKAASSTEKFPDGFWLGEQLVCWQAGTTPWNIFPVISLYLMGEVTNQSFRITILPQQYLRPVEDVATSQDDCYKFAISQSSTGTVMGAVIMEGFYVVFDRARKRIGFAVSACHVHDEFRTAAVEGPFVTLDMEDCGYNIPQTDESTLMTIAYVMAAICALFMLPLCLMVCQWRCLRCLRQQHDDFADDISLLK"}, "source": "paper PMC4608735", "target": "BACE1 from M17-APPsw cell lysate (UniProt P56817)", "test": "pull-down (streptavidin beads) + immunoblot", "conditions": "protein in an extract, single-stranded DNA", "note": "For at least one entry, the source does not settle the construct or the ends of the probe. Results from cells or extracts need not show a direct contact."}
{"sequence": "GCAATGGTACGGTACTTCCGTCATCAGCTTGTGATGTGGATGCGAACTGCAAAAGTGCACGCTACTTTGCTAA [A1]", "values": [{"measurement": "binding result", "value": "binds"}]}
